Measured data: PubChem BioAssay AID504791 (Drosophila RNAi Screening Center, 2011)
The deposit covers about 23,000 reagents; this is an unselected part of those with a known target gene and a result. In the full data, 199 (0.86%) were called active. 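Plate-scaled ratios behind the calls are not deposited; printed light signals are raw; many rows marked increased or decreased are still called inactive.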 Unmarked entries are inactive.

- Screen: 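Genes whose knock-down strengthens or weakens small-RNA reporter silencing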 (primary screen)
- System: Drosophila S2-derived reporter cells
- Reagent: long dsRNA against Drosophila genes, about 150-250 ng dsRNA per well (siRNA assay); about 80-120 ng (miRNA assay)
- Duration: about 5 days (siRNA assay); about 4 days (miRNA assay)
- Challenge: copper sulfate induction of reporters: 25 µM (siRNA assay); 200 mM stated (miRNA assay), 1-2 days before reading
- Measurement: 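Dual luciferase assay: Renilla to firefly signal ratio in each well, scaled to the mean ratio of its plate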
- Scale: siRNA reporter hit score: higher = 3 marks a strong hit with raised ratio; -3 a strong hit with lowered ratio
- Rule for the call: 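a well was a first-pass pick when its plate-scaled ratio rose above 1.5 (siRNA assay) or 1.6 (miRNA assay), or dropped below 0.6; a gene counted only if two separate dsRNAs agreed on retest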

no.	gene knocked down	PubChem SID	siRNA reporter hit score	stable siRNA reporter change	miRNA reporter change	stable assay Renilla, run 1 (luminescence)	stable assay firefly, run 1 (luminescence)
1	AGO3 (Argonaute 3)	SID104201152				8743	4.18e5
2	SLC22A (SLC22A family member)	SID104191618				6538	4.57e5
3	SLC22A (SLC22A family member)	SID104191619				5811	3.31e5
4	Usp30 (Ubiquitin specific protease 30)	SID104198057				5720	3.12e5
5	CG9826	SID104184362				6904	3.80e5
6	CG12608	SID104199264				9595	5.69e5
7	polybromo	SID104194099				6680	2.83e5
8	CG13708	SID104188109				6414	4.10e5
9	Ugt35B1 (UDP-glycosyltransferase family 35 member B1)	SID104196685				8313	4.68e5
10	CycE (Cyclin E)	SID104183087				8433	1.73e6
11	CycE (Cyclin E)	SID104183088		reporter ratio lowered past the hit cutoff (active)		4423	5.53e5
12	Gbp2 (Growth-blocking peptide 2)	SID104185861				10402	4.66e5
13	qua (quail)	SID104183390				6770	3.78e5
14	Ahcy (Adenosylhomocysteinase)	SID104199121				9195	4.07e5
15	Rrp45	SID104199990				6608	3.75e5
16	mbt (mushroom bodies tiny)	SID104200140				4763	3.34e5
17	mbt (mushroom bodies tiny)	SID104202377				4527	3.47e5
18	Gapdh1 (Glyceraldehyde 3 phosphate dehydrogenase 1)	SID104187225				6715	4.43e5
19	Nup205 (Nucleoporin 205kD)	SID104199224				9234	3.97e5
20	Jhbp7 (Juvenile hormone binding protein 7)	SID104194200				6967	3.72e5
21	CG16800	SID104182310				6662	3.14e5

The list goes on (7 carried over from the part before).
no.	gene knocked down	PubChem SID	siRNA reporter hit score	stable siRNA reporter change	miRNA reporter change	stable assay Renilla, run 1 (luminescence)	stable assay firefly, run 1 (luminescence)
15	Rrp45	SID104199990				6608	3.75e5
16	mbt (mushroom bodies tiny)	SID104200140				4763	3.34e5
17	mbt (mushroom bodies tiny)	SID104202377				4527	3.47e5
18	Gapdh1 (Glyceraldehyde 3 phosphate dehydrogenase 1)	SID104187225				6715	4.43e5
19	Nup205 (Nucleoporin 205kD)	SID104199224				9234	3.97e5
20	Jhbp7 (Juvenile hormone binding protein 7)	SID104194200				6967	3.72e5
21	CG16800	SID104182310				6662	3.14e5
22	CG6254	SID104195794				7027	3.84e5
23	SmD3 (Small ribonucleoprotein particle protein SmD3)	SID104187345				10941	4.07e5
24	CR11700 (retired record)	SID104197586	3 (active)	reporter ratio raised past the hit cutoff	reporter ratio raised past the hit cutoff	7530	2.31e5
25	CR11700 (retired record)	SID104202716			reporter ratio raised past the hit cutoff (active)		
26	CG33775	SID104185145				5818	3.56e5
27	CG7707	SID104190695				8267	4.76e5
28	Pgant8 (Polypeptide N-Acetylgalactosaminyltransferase 8)	SID104190593				7849	3.62e5
29	CG13458	SID104189797				7198	2.52e5
30	Cyp6g2 (Cytochrome P450 6g2)	SID104187179				6508	3.28e5
31	Or7a (Odorant receptor 7a)	SID104198483				5191	3.14e5
32	cpo (couch potato)	SID104193057				5220	5.07e5
33	Apoltp (Apolipoprotein lipid transfer particle)	SID104182300				6536	7.80e5
34	Faa (Fumarylacetoacetase)	SID104188243				7871	4.57e5
35	Or67b (Odorant receptor 67b)	SID104191033				5955	4.40e5
36	mei-9 (meiotic 9)	SID104198584				6127	3.02e5
37	Cyp9b1 (Cytochrome P450 9b1)	SID104187181				6663	3.87e5
38	CG17036	SID104182356				6771	3.95e5
39	Mrm2 (Mitochondrial rRNA methyltransferase 2)	SID104194102				7527	3.68e5
40	CG12986	SID104199298				5523	4.34e5
41	Nepl17 (Neprilysin-like 17)	SID104194672				6387	3.23e5
42	CG2767	SID104195243				9168	4.65e5
43	Oatp58Da (Organic anion transporting polypeptide 58Da)	SID104184157				7080	5.03e5
44	CG6686	SID104182771				20539	7.31e5
45	CG6686	SID104206249			reporter ratio raised past the hit cutoff		
46	Atg10 (Autophagy-related 10)	SID104185964				6912	4.94e5
47	CG13946	SID104180156				7886	6.15e5
48	Muc91C (Mucin 91C)	SID104196089				6150	3.40e5
49	Muc91C (Mucin 91C)	SID104201375				9814	5.61e5
50	Hsp67Ba (Heat shock gene 67Ba)	SID104190983				5211	3.21e5
51	CG5172	SID104199728				4890	4.98e5
52	Hacl (2-hydroxyacyl-CoA lyase)	SID104185853				10861	5.80e5
53	Taf12L (TBP-associated factor 30kD subunit alpha-2)	SID104180259				8771	6.47e5
54	Ada2a (transcriptional Adaptor 2a)	SID104195998				7099	3.65e5
55	Ada2a (transcriptional Adaptor 2a)	SID104201303				6364	3.40e5
56	uncNacbeta	SID104180118				7781	5.37e5
57	msl-2 (male-specific lethal 2)	SID104180621				17130	87876
